# Screening data

The results are deposited in PubChem (AID593; NCATS, 2007).

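Each compound's own glow in the fluorescein wavelength window is measured in buffer and scaled against an on-plate fluorescein standard curve.
The test concentration is not given here.
The highest fluorescein-equivalent concentration (molar) reached across the compound's tested levels; a larger value means stronger autofluorescence.
Inconclusive calls here sit at roughly 1 to 7 nM fluorescein-equivalent; values above about 10 nM are called active.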

Values are in M.
Every entry below has the call inconclusive.
These entries are mostly ones the record files as inconclusive; other results of the assay are not listed here.
An entry listed twice with the same setting is a separate test.

structure	max fluorescein-equivalent concentration (M)
O=C(O)CCc1nc2ccccc2[nH]1	0.0000000
O=C(C1CCCCC1)N1CC(=O)N2CCc3ccccc3[C@@H]2C1	0.0000000
CN(C)CCCN1c2ccccc2Sc2ccccc21	0.0000000
C[C@]12CC3CC(N)(C1)C[C@@](C)(C3)C2	0.0000000
O=C(O)c1cc(NS(=O)(=O)c2cccc3ccccc23)ccc1O	0.0000000
O=C(O)CCNC(=O)c1ccccc1	0.0000000
CC(C)(C)CC(C)(C)c1ccc(OCCOCC[N+](C)(C)Cc2ccccc2)cc1	0.0000000
Cc1nnc(SCC2=C(C(=O)O)N3C(=O)[C@@H](NC(=O)Cn4cnnn4)[C@H]3SC2)s1	0.0000000
CCN1CCc2c(sc(N)c2C#N)C1	0.0000000
Oc1cccc2cccnc12	0.0000000
CN1C(=O)N(C)C2C1N(C)S(=O)(=O)N2C (configuration not stated)	0.0000000
CO/N=C(\C(=O)N[C@@H]1C(=O)N2C(C(=O)O)=C(COC(C)=O)CS[C@@H]12)c1csc(N)n1	0.0000000
c1ccc2nc(N3CCNCC3)ccc2c1	0.0000000
O=C1CC[C@]2(O)[C@H]3Cc4ccc(O)c5c4[C@@]2(CCN3CC2CC2)[C@@H]1O5	0.0000000
C[N+]1(C)C2CC(OC(=O)C(CO)c3ccccc3)CC1[C@@H]1O[C@H]21 (some centres not stated)	0.0000000
COc1ccc(CN2CCNCC2)c(OC)c1OC	0.0000000
CCCn1c(=NC(C)=O)c(C(=O)OCC)cc2c(=O)n3ccccc3nc21	0.0000000
N[C@H](CC(=O)O)C(=O)O	0.0000000
CCOC(=O)C1=C(C)NC(C)=C(C(=O)OC)C1c1cccc(Cl)c1Cl (configuration not stated)	0.0000000
CCCCn1c(NC(=O)c2ccccc2)c(C#N)c2nc3ccccc3nc21	0.0000000
O=c1c(O)c(-c2cc(O)c(O)c(O)c2)oc2cc(O)cc(O)c12	0.0000000
N#CCCn1c(=O)c(-c2cccs2)nc2cnc(N3CCNCC3)nc21	0.0000000
CN1Cc2c(N)cccc2[C@H](c2ccccc2)C1	0.0000000
O=C1c2c(O)ccc(O)c2C(=O)c2c(NCCNCCO)ccc(NCCNCCO)c21	0.0000000
N[C@@H](CO)C(=O)O	0.0000000
CN(C)CC[C@H](c1ccc(Br)cc1)c1ccccn1	0.0000000
COc1cc2cc3c4cc(OC)c(OC)cc4cc[n+]3c(C)c2cc1OC	0.0000000
CCC(NC(C)C)C(O)c1ccc(O)c2[nH]c(=O)ccc12 (configuration not stated)	0.0000000
C(=C/c1ccccc1)/CN1CCN(C(c2ccccc2)c2ccccc2)CC1	0.0000000
COC(=O)C1=CN(CC2CCCO2)C=C(C(=O)OC)C1c1cc(OC)c(OC)c(OC)c1 (configuration not stated)	0.0000000
Nc1ccc(S(=O)(=O)Nc2ncccn2)cc1	0.0000000
COc1ccc2nc(S(=O)Cc3ncc(C)c(OC)c3C)[nH]c2c1 (configuration not stated)	0.0000000
COc1cc(N)c(Cl)cc1C(=O)N[C@H]1CCN(CCCOc2ccc(F)cc2)C[C@H]1OC	0.0000000
COc1ccc(CN(CCN(C)C)c2ccccn2)cc1	0.0000000
COc1ccc(CN(CCN(C)C)c2ccccn2)cc1	0.0000000
NC(=NCc1ccccc1)NC(=O)c1nc(Cl)c(N)nc1N	0.0000000
Cc1cn([C@H]2C[C@H](N=[N+]=[N-])[C@H](CO)O2)c(=O)[nH]c1=O	0.0000000
CC(C)Cc1ccc([C@H](C)C(=O)O)cc1	0.0000000
O=C(O)c1ccccc1C(=O)Nc1ccc(S(=O)(=O)Nc2nccs2)cc1	0.0000000
Clc1ccccc1CN1CCc2sccc2C1	0.0000000
COc1cc([C@H]2c3cc4c(cc3[C@@H](O[C@@H]3O[C@H]5CO[C@@H](C)O[C@]5(O)C[C@H]3O)[C@@H]3COC(=O)[C@H]23)OCO4)cc(OC)c1O	0.0000000
O=C(CN1C2=NCCN2c2ccccc21)C12CC3CC(CC(C3)C1)C2	0.0000000
NC(N)=NCCC[C@H](N)C(=O)O	0.0000000
NCCS	0.0000000
N=c1nc(N2CCCCC2)cc(N)n1O	0.0000000
CN1[C@@H]2CC[C@H]1CC(O)C2 (some centres not stated)	0.0000000
Nc1nc(N)c2nc(-c3ccccc3)c(N)nc2n1	0.0000000
N#CC1=C(N)C(C#N)(C#N)[C@H](c2ccsc2)[C@H]2COCC=C12	0.0000000
Cc1cc(C)c2nc(N3CCCN(C(=O)c4ccco4)CC3)c(C#N)cc2c1	0.0000000
O=c1c2cc(N3CCOCC3)ccc2[nH]c(=S)n1Cc1ccco1	0.0000000
CCN(CCCCOC(=O)c1ccc(OC)c(OC)c1)[C@@H](C)Cc1ccc(OC)cc1	0.0000000
Oc1cc2ccccc2cc1-c1n[nH]c(=S)o1	0.0000000
Cc1ccsc1/C=C\C1=NCCCN1C	0.0000000
COc1ccc2c(c1)c(CC(=O)O)c(C)n2C(=O)c1ccc(Cl)cc1	0.0000000
Cn1c(=O)c2c(nc(CN3CCN(c4ccc(F)cc4)CC3)n2CCN2CCOCC2)n(C)c1=O	0.0000000

The first 6 entries again:

| structure | max fluorescein-equivalent concentration (M) |
|---|---|
| `O=C(O)CCc1nc2ccccc2[nH]1` | 0.0000000 |
| `O=C(C1CCCCC1)N1CC(=O)N2CCc3ccccc3[C@@H]2C1` | 0.0000000 |
| `CN(C)CCCN1c2ccccc2Sc2ccccc21` | 0.0000000 |
| `C[C@]12CC3CC(N)(C1)C[C@@](C)(C3)C2` | 0.0000000 |
| `O=C(O)c1cc(NS(=O)(=O)c2cccc3ccccc23)ccc1O` | 0.0000000 |
| `O=C(O)CCNC(=O)c1ccccc1` | 0.0000000 |